Assay results reported in paper doi:10.1101/2025.05.13.653717.

Target: T1, Phosphatase and Actin Regulator 4 (Phactr4) (mouse (endogenous in murine cells)) (UniProt Q501J7)
T1 sequence: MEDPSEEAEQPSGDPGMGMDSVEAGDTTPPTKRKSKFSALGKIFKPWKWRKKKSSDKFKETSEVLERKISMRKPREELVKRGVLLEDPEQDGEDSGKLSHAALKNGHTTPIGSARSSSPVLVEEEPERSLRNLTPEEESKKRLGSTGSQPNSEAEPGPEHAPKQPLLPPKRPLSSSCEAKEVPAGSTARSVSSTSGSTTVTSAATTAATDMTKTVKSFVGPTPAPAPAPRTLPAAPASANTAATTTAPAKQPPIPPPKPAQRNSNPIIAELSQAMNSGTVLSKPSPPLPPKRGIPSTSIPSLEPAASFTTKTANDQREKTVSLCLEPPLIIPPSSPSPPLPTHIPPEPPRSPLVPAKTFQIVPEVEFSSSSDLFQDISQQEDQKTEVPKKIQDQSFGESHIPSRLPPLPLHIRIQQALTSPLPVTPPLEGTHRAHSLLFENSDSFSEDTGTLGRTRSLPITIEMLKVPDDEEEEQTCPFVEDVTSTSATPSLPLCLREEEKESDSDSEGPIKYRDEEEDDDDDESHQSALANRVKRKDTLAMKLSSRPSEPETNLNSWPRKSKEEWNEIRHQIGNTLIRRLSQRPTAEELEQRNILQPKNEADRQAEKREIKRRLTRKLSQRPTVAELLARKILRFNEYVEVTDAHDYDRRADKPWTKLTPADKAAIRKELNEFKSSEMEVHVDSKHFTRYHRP
Assay: co-IP; Phactr4 antibody or control IgG added to precleared cell lysate overnight at 4°C, Protein G magnetic beads; IP Lysis Buffer 50 mM Tris pH 7.4, 1% IPEGAL, 150 mM NaCl, 1 mM EDTA, 10% glycerol, 1.5 mM MgCl2; blots for Arp3, PP1 and Phactr4

“Protein Phosphatase 1 (PP1) (mouse (endogenous in murine cells)) (enzyme)” was tested, and the binding was “binds”.

No constants are given. Whether binding was seen depends on the method and setting. Binding seen in cells or lysates may run through a third protein. Binding can be weak; no strength is given.
